The assay deals with biotinylated cynoPD1-ECD-Biotin (cynomolgus). As to the kind of experiment: ELISA for cyno PD1 (row 'cynomolgus crossreactivity (EC50 [nm]'). (In general: An ELISA detects its analyte on a solid surface through an enzyme-linked reagent.)

No constants are given. Whether binding was seen depends on the method and setting. Binding calls can cover weak binding; strength is not graded here.

B1: chimeric PD1-0103 (antibody, V domains shown)
VH: EVILVESGGGLVKPGGSLKLSCAASGFSFSSYTMSWVRQTPEKRLDWVATISGGGRDIYYPDSVKGRFTISRDNAKNTLYLEMSSLMSEDTALYYCVLLTGRVYFALDSWGQGTSVTVSS
VL: KIVLTQSPASLPVSLGQRATISCRASESVDTSDNSFIHWYQQRPGQSPKLLIYRSSTLESGVPARFSGSGSRTDFTLTIDPVEADDVATYYCQQNYDVPWTFGGGTKLEIK
On to B1, for which the binding result is “binds”.

Source of the values: US20170247454A1 (Hoffmann-La Roche, published 2017).
